{"source": "PubChem BioAssay AID504793, Drosophila RNAi Screening Center, 2011", "assay": "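Whole-genome screen for parts of the DNA damage checkpoint at G2/M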 (primary screen)", "system": "Drosophila S2R+ cells", "reagent": "long dsRNA against Drosophila genes, about 0.25 µg dsRNA per well", "time to read-out": "4 days of dsRNA, then 4 hours of drug before read-out", "conditions": "doxorubicin 0.5 µM for 4 hours to cause double-strand breaks, in cells also given a low, harmless dose of dsRNA against nbs to sensitise the assay", "measurement": "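Mitotic index as the number of phospho-histone H3-positive cells in each well following doxorubicin, given as raw counts without normalisation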", "direction": "mitotic cells: higher = more cells in mitosis, weaker G2 arrest", "call rule": "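Genes are called active only when high mitotic counts were reproduced with independent dsRNAs and mitosis was checked for delay without damage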", "calls": "active = confirmed in follow-up tests; inactive = not confirmed", "note": "The deposit covers about 23,000 reagents; this is a random part of those that have a named target and a result. Of all reagents, 62 (0.27%) were called active. 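Calls come from follow-up tests whose scores are not deposited, so confirmed genes may have low counts here; counts are not normalised per plate.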 Raw values vary from plate to plate and are shown uncorrected. The numbers tell different reagents against one gene apart. Names joined by + are all predicted targets of the reagent."}
{"predicted target": "RpL6 (GeneID 43723)", "reagent": 1, "mitotic cells, replicate 1": 17, "activity call": "inactive"}
{"predicted target": "RpL6 (GeneID 43723)", "reagent": 2, "mitotic cells, replicate 1": 21, "activity call": "inactive"}
{"predicted target": "RpL6 (GeneID 43723)", "reagent": 3, "mitotic cells, replicate 1": 6, "activity call": "inactive"}
{"predicted target": "CG30273 (GeneID 246520)", "reagent": 1, "mitotic cells, replicate 1": 9, "activity call": "inactive"}
{"predicted target": "CG30273 (GeneID 246520)", "reagent": 2, "mitotic cells, replicate 1": 7, "activity call": "inactive"}
{"predicted target": "CG9705 (GeneID 39875)", "reagent": 1, "mitotic cells, replicate 1": 4, "activity call": "inactive"}
{"predicted target": "msb1l (GeneID 35254)", "reagent": 1, "mitotic cells, replicate 1": 3, "activity call": "inactive"}
{"predicted target": "msb1l (GeneID 35254)", "reagent": 2, "mitotic cells, replicate 1": 5, "activity call": "inactive"}
{"predicted target": "wts (GeneID 43651)", "reagent": 1, "mitotic cells, replicate 1": 8, "activity call": "inactive"}
{"predicted target": "wts (GeneID 43651)", "reagent": 2, "mitotic cells, replicate 1": 5, "activity call": "inactive"}
{"predicted target": "htl (GeneID 42160)", "reagent": 1, "mitotic cells, replicate 1": 4, "activity call": "inactive"}
{"predicted target": "htl (GeneID 42160)", "reagent": 2, "mitotic cells, replicate 1": 12, "activity call": "inactive"}
{"predicted target": "CG14071 (GeneID 34507)", "reagent": 1, "mitotic cells, replicate 1": 6, "activity call": "inactive"}
{"predicted target": "Meltrin (GeneID 3772109)", "reagent": 1, "mitotic cells, replicate 1": 2, "activity call": "inactive"}
{"predicted target": "Meltrin (GeneID 3772109)", "reagent": 2, "mitotic cells, replicate 1": 8, "activity call": "inactive"}
{"predicted target": "Set (GeneID 41844)", "reagent": 1, "mitotic cells, replicate 1": 5, "activity call": "inactive"}
{"predicted target": "CG5973 (GeneID 34023)", "reagent": 1, "mitotic cells, replicate 1": 8, "activity call": "inactive"}
{"predicted target": "CG4218 (GeneID 34848)", "reagent": 1, "mitotic cells, replicate 1": 5, "activity call": "inactive"}
{"predicted target": "CG4218 (GeneID 34848)", "reagent": 2, "mitotic cells, replicate 1": 5, "activity call": "inactive"}
{"predicted target": "Frq1 (GeneID 32797)", "reagent": 1, "mitotic cells, replicate 1": 11, "activity call": "inactive"}
{"predicted target": "Frq1 (GeneID 32797)", "reagent": 2, "mitotic cells, replicate 1": 8, "activity call": "inactive"}
{"predicted target": "CG15812 (GeneID 38379)", "reagent": 1, "mitotic cells, replicate 1": 2, "activity call": "inactive"}
{"predicted target": "blw (GeneID 37617)", "reagent": 1, "mitotic cells, replicate 1": 5, "activity call": "inactive"}
{"predicted target": "CG8997 (GeneID 34799)", "reagent": 1, "mitotic cells, replicate 1": 6, "activity call": "inactive"}
{"predicted target": "CG8997 (GeneID 34799)", "reagent": 2, "mitotic cells, replicate 1": 11, "activity call": "inactive"}
{"predicted target": "CG9356 (GeneID 41122)", "reagent": 1, "mitotic cells, replicate 1": 6, "activity call": "inactive"}
{"predicted target": "CG7453 (GeneID 32903)", "reagent": 1, "mitotic cells, replicate 1": 6, "activity call": "inactive"}
{"predicted target": "CG7453 (GeneID 32903)", "reagent": 2, "mitotic cells, replicate 1": 10, "activity call": "inactive"}
{"predicted target": "CG8320 + ATPCL", "reagent": 1, "mitotic cells, replicate 1": 3, "activity call": "inactive"}
{"predicted target": "CG8329 (GeneID 39123)", "reagent": 1, "mitotic cells, replicate 1": 5, "activity call": "inactive"}
{"predicted target": "CG8329 (GeneID 39123)", "reagent": 2, "mitotic cells, replicate 1": 5, "activity call": "inactive"}
{"predicted target": "CG31687 + Cdc23", "reagent": 1, "mitotic cells, replicate 1": 16, "activity call": "inactive"}
{"predicted target": "CG17059 + Fsn", "reagent": 1, "mitotic cells, replicate 1": 3, "activity call": "inactive"}
{"predicted target": "CG32280 (GeneID 317952)", "reagent": 1, "mitotic cells, replicate 1": 12, "activity call": "inactive"}
